PubChem BioAssay AID720505 – Drosophila RNAi Screening Center | 2013

Aim: 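Fly regulators or components of the CRAC channel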 (primary screen)
Cell system: Drosophila S2R+ cells
Reagents: long dsRNA against Drosophila genes
Challenge: thapsigargin (2 µM) in calcium-free buffer to empty internal stores, then 2 mM calcium added back
Detection: 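Fluo-4 signal in 384-well plates read on a FLIPR after thapsigargin (2 µM, calcium-free) store depletion and 2 mM calcium add-back; unnormalised mean endpoint per well; screen run twice, selected wells retested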
Scale: calcium signal and retest calcium signal: higher = more calcium entry after store depletion
Hit rule: 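Knock-downs counted as hits when calcium entry dropped relative to STIM1 positive and Rho1 negative controls present on each plate; roughly 1500 genes called, with reductions of differing size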
Meaning of the calls: active = called as lowering calcium entry; inactive = not called
The screen tested about 20,000 reagents; shown is an unselected part of those that have a named target and a result. Over the whole deposit, about 2,100 (10%) are marked active. 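Raw plate signals without normalisation; calls rest on control-based scores that were not deposited; replicate 2 separates called from uncalled poorly.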 A plus sign joins genes that one reagent is predicted to hit. Not given: the amount of reagent, the time to read-out.

Target gene	DRSC id	calcium signal, replicate 1	calcium signal, replicate 2	retest calcium signal, replicate 1	retest calcium signal, replicate 2	Outcome
CG8620	DRSC11020	74.5	73.7			inactive
FASN3	DRSC20882	136	80			inactive
alpha-Man-Ia	DRSC18162	72.1	124			active
alpha-Man-Ia	DRSC18163	70.8	114			active
alpha-Man-Ia	DRSC18735	74.8	116			active
alpha-Man-Ia	DRSC23100	136	173			inactive
ATbp	DRSC20906	262	101			inactive
CG14095	DRSC10098	115	205			inactive
CG31808	DRSC22962	149	106			inactive
srp	DRSC17068	203	218			inactive
srp	DRSC23166	160	130			inactive
Ets97D	DRSC16665	197	207			inactive
Lgr3	DRSC15704	167	127			inactive
Lgr3	DRSC15706	71.8	107			inactive
dpr12	DRSC04814	128	101			inactive
dpr12	DRSC04863	129	203			inactive
dpr12	DRSC04892	193	156			inactive
CG10927	DRSC06014	130	114			inactive
Dg	DRSC06718	113	145			inactive
swaPsi	DRSC21685	219	87.9			inactive
CG1943	DRSC12576	120	161			inactive
NLaz	DRSC21521	157	113			inactive
CG4098	DRSC10399	125	177			inactive
Cow	DRSC13601	103	94.2			inactive
Cow	DRSC14680	207	163			inactive
CG2065	DRSC06813	111	150			inactive
CG2065	DRSC21328	96.4	69			inactive
Fum4	DRSC22577	204	179			inactive
atlas	DRSC04183	69.3	103			inactive
CG15027	DRSC19608	96.3	139			inactive
CG4907	DRSC15673	192	126			inactive
msd1	DRSC08383	126	175			inactive
gcl	DRSC07623	189	206			inactive
pzg	DRSC11848	66.3	102			active
siz	DRSC11622	92.2	116			inactive
siz	DRSC11689	86.4	123			inactive
siz	DRSC11690	90.2	96.5			inactive
CG5969	DRSC11789	109	104			inactive
Cyp311a1	DRSC20239	96.5	98.3			inactive
CG17707	DRSC20650	182	83.9			inactive
Or85a	DRSC16764	124	107			inactive
Moca-cyp	DRSC15364	134	116			inactive
ebo	DRSC18787	126	159			inactive
AspRS	DRSC05914	139	112			inactive
ninaE	DRSC17014	160	178			inactive
CG7916	DRSC01901	83.6	100			inactive
Adgf-B	DRSC10568	126	150			inactive
Rbfox1	DRSC09034	7092	125			inactive
Rbfox1	DRSC10157	74.4	96.5	85.9	5714	active
Rbfox1	DRSC10320	59.4	81.7			inactive
Rbfox1	DRSC21378	171	118			inactive
Rbfox1	DRSC22992	126	161			inactive
Atg2	DRSC08273	69.1	146			active
cno	DRSC12374	62.8	103			active
cno	DRSC22980	98.5	113			inactive
Mlc1	DRSC16740	106	99.1			inactive
CG14990	DRSC08449	98.6	115			inactive
Lcp65Ag3 + Lcp65Ag2 + Lcp65Ag1	DRSC11214	64.7	46.9			active
Lcp65Ag3 + Lcp65Ag2 + Lcp65Ag1	DRSC11215	69.9	49			inactive
CG4133	DRSC00639	126	128			inactive
CG4133	DRSC23122	88.8	159			inactive
Fatp2	DRSC03971	91.2	6279	111	77.8	inactive
Fatp2	DRSC04178	118	171			inactive
Fatp2	DRSC04330	148	261			inactive
CG30429	DRSC04040	110	94.2			inactive
osy	DRSC14903	240	106			inactive
osy	DRSC15979	252	109			inactive
osy	DRSC15981	111	132			inactive
CG12241	DRSC14481	120	99.7			inactive
CG1304	DRSC20494	187	117			inactive
CG17343	DRSC02606	174	125			inactive
CG17343	DRSC22807	60.1	104			active
CG13218	DRSC06340	93.4	121			inactive
CG31244	DRSC21589	107	98.7			inactive
CG10516	DRSC09738	114	174			inactive
Trs20	DRSC10489	100	176			inactive
CG14502	DRSC06473	146	119			inactive
fh	DRSC18430	65.8	69.3			active
MED15	DRSC00267	64.8	151			active
CG31157	DRSC21832	153	69.5			inactive
Cog1	DRSC15661	94.4	113			inactive
GatB	DRSC15807	223	87.3			inactive
vih	DRSC09778	45.5	42.8			active
CG4570	DRSC15602	180	82.3			inactive
fd102C	DRSC17203	89.4	113			inactive
RpS25	DRSC16837	87	106			inactive
RpS10b	DRSC19561	148	86.5	6247	112	inactive
CG30384	DRSC06032	135	179			inactive
twf	DRSC15466	110	121			inactive
CG18853	DRSC06795	83.3	98.4			inactive
Ir52c	DRSC21801	160	94.8			inactive
Nepl17	DRSC14880	124	187			inactive
CG11714	DRSC09857	122	77.7			inactive
GstE8	DRSC06678	151	91			inactive
PQBP1	DRSC14393	224	270			inactive
Cyp6t3	DRSC07388	108	138			inactive
TTLL6A	DRSC06618	179	186			inactive
Oatp58Da	DRSC04365	201	80.9			inactive
DAT	DRSC07394	175	187			inactive
Elba3	DRSC00469	107	120			inactive
CG8192	DRSC07101	123	133			inactive
CG9902	DRSC20212	136	135			inactive
MRP	DRSC02942	199	185			inactive
CG6749	DRSC10704	103	115			inactive
Spn28B	DRSC02982	62	63.3	165	93.9	active
CG3309	DRSC18301	147	90			inactive

Entries listed above called active (13):
Target gene	DRSC id	calcium signal, replicate 1	calcium signal, replicate 2	retest calcium signal, replicate 1	retest calcium signal, replicate 2	Outcome
alpha-Man-Ia	DRSC18162	72.1	124			active
alpha-Man-Ia	DRSC18163	70.8	114			active
alpha-Man-Ia	DRSC18735	74.8	116			active
pzg	DRSC11848	66.3	102			active
Rbfox1	DRSC10157	74.4	96.5	85.9	5714	active
Atg2	DRSC08273	69.1	146			active
cno	DRSC12374	62.8	103			active
Lcp65Ag3 + Lcp65Ag2 + Lcp65Ag1	DRSC11214	64.7	46.9			active
CG17343	DRSC22807	60.1	104			active
fh	DRSC18430	65.8	69.3			active
MED15	DRSC00267	64.8	151			active
vih	DRSC09778	45.5	42.8			active
Spn28B	DRSC02982	62	63.3	165	93.9	active
